Data taken from PubChem BioAssay AID1259415 (National Center for Advancing Translational Sciences (NCATS), 2018).
“And” between values parts separate entries of the source, which are not always exact repeats. Equal entries are not always repeated. About 18,000 (4.4%) of roughly 410,000 compounds were called active. This list was built around the results that the source calls inconclusive (neither active nor inactive); the mix of calls is not that of the screen. No stated cut-off is given here; in the data, active means activity change below about -60%; inconclusive means no clear call, values can overlap the other calls; inactive means above about -39%. Where a SMILES comes first, the peptide text is derived from it. [ ]: non-standard residue; d: D form. The star is where a group is joined. Sta = CC(C)C[C@H](N)[C@@H](O)CC(=O)O; Isovaleryl = CC(C)CC(=O)*

Assay: qHTS Assay for inhibitors of the human cytomegalovirus (HCMV)
Conditions: HFF cells, HCMV-luciferase reporter, 72 h; at 57.5 µM; stronger effect = lower value
In short: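 Screen run at 2 compound doses on HFFs infected with reporter HCMV, MOI 1 PFU/cell. Luciferase activity from cell lysates at 72 h post infection gave inhibition relative to buffer-only and Salinomycin wells.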
On the % scale 0 is the no-effect control and ±100 the full control effect.

Row | Structure (SMILES) | activity change, negative = inhibition
1 | COc1cccc(CNC(=O)Cn2cccc2C(=O)c2ccccc2C)c1 | inactive: 4.13%
2 | Cc1c(C(=O)N2CCCCCC2)c(S(=O)(=O)NCc2ccccc2Cl)c(C)n1C | inconclusive: -45.8%
3 | O=C(C1CCN(S(=O)(=O)c2cccc3cccnc23)CC1)N1CCN(c2ccc(Cl)cc2)CC1 | active: -79.2%
4 | CSc1ccc(CN2CCC2(C)C(=O)Nc2cccc(Oc3ccccc3)c2)cc1 (centres undefined) | inactive: -23.7%
5 | COc1ccc(Cn2c(O)c(/C=N/NC(=O)c3ccccc3O)c(=O)[nH]c2=O)cc1 | inconclusive: -49.7%
6 | C=CCn1c(SCC(=O)Nc2ccccc2F)nnc1C(C)NC(=O)c1ccccc1F (centres undefined) | inconclusive: -51.2%
7 | CC(=O)c1c(N2CCOCC2)nc(=S)n(-c2cc(C)ccc2C)c1C | inconclusive: -46%
8 | CCCN(CC(=O)Nc1ccccc1C)C(=O)CCl | active: -98.7%
9 | COc1ccc(CCNC(=O)CSc2nnc3c(n2)[nH]c2ccc(F)cc23)cc1OC | inactive: -23.6%
10 | COc1ccccc1CNS(=O)(=O)c1c(C(=O)N2CCCCCC2)c(C)n(C)c1C | inactive: -1.77%
11 | CCOc1ccc(S(=O)(=O)N2CCCCC2)cc1NC(=O)CN1CCCC1c1cccs1 (centres undefined) | active: -90%
12 | CN1N=C(c2ccc(Cl)cc2)CC(c2ccc(Cl)cc2)C1=O (centres undefined) | inconclusive: -56%
13 | Brc1ccc(-c2nc3ncccn3c2NC2CCCCC2)o1 | inconclusive: -55.1%
14 | COc1ccc(CCNCc2ccc(OCC(=O)N3CCCCC3)c(OC)c2)cc1OC | inconclusive: -43.9%
15 | CCC(C(=O)OC)n1cnc2c(nnn2-c2cccc(OC)c2)c1=O (centres undefined) | inconclusive: -49.2%
16 | C[C@@H](C(=O)Nc1ccc2ccccc2c1)[C@@H]1C[C@@]1(C)[C@@H](N)c1ccccc1 | inactive: 15.7%
17 | O=C(CSc1nnc(CNC(=O)c2ccco2)o1)Nc1nc2ccccc2s1 | inactive: 23%
18 | CCOc1ccc(CCNC(=O)COC(=O)c2ccc(OC)c(OC)c2OC)cc1OCC | inconclusive: -43.2%
19 | CC(=O)Nc1ccc(Nc2nnc(-c3ccc(C)c(S(N)(=O)=O)c3)c3ccccc23)cc1 | inactive: -2.68% and inconclusive: -43.4%
20 | Fc1ccc(N2CCN(/C=C/c3nnnn3-c3ccccc3)CC2)cc1 | inconclusive: -44.4%
21 | O=C(Nc1ccc(C(=O)N2CCC(O)(c3ccc(Cl)c(C(F)(F)F)c3)CC2)cc1)c1ccc(Br)o1 | inconclusive: -44.6%

Row | Structure (SMILES) | activity change, negative = inhibition
22 | COCCCNC(=O)CN1C(=O)CSc2ccc(S(=O)(=O)N3CCOCC3)cc21 | inconclusive: 0%
23 | CC1(C)[C@H]2CC[C@]1(C)[C@@H](OC(=O)C[N+]1(C)CCOCC1)C2 | inactive: -16.5%
24 | CCOC(=O)[C@]12CCCC=C1N(CCc1ccc(OC)c(OC)c1)C(=O)[C@H](CC(=O)NCCCN1CCCC1=O)C2 | inconclusive: -40.4%
25 | COc1ccccc1S(=O)(=O)Nc1cc(S(=O)(=O)N2CCCCC2)ccc1N1CCOCC1 | inconclusive: -45.8%
26 | NC(=O)C1CCN(c2nc(-c3cc4ccccc4o3)cs2)CC1 | inconclusive: -43.1%
27 | CC1(C)C(=S)N(Cc2ccccc2)c2ccccc21 | inactive: -30.1%
28 | CC(=O)Nc1ccc(NC(=O)C2CCN(S(=O)(=O)c3ccc4c(c3)OCCO4)CC2)cc1 | inconclusive: -52.4%
29 | CC(C)NC(=O)CN1CCN(C(=O)CCl)CC1 | inactive: -2.36%
30 | CCOC(=O)N1CCC(NC(=O)C2CCN(C(=O)c3cc4sccc4n3CC)CC2)CC1 | inconclusive: -54.2%
31 | Cc1ccc(S(=O)(=O)N(C)C)cc1NC(=O)COC(=O)c1ccc2c(c1)OCCO2 | inconclusive: -47.2%
32 | CCCCNC(=O)CC1NCCNC1=O (centres undefined) | inconclusive: -44.5%
33 | CCOC(=O)N1CCN(C(=O)C[C@@H]2C[C@@]3(C(=O)OC)CCCCC=C3N(Cc3ccc(Cl)cc3Cl)C2=O)CC1 | inactive: 1.76%
34 | CCCCc1ccc(NC(=O)c2ccc3c(c2)CCN3S(=O)(=O)c2ccccc2)cc1 | inconclusive: -42.6%
35 | COC(=O)c1ccc(Cn2c(SCC(=O)N(C)c3ccccc3)nc3ccccc32)cc1 | inactive: -6.59%
36 | CCCCOc1ccc(C(=O)NCC(=O)N2CCN(Cc3ccc4c(c3)OCO4)CC2)cc1 | active: -68.4%
37 | CCOC(=O)c1c(NC(=O)c2c(-c3ccccc3)noc2C)sc(C)c1-c1ccccc1 | active: -102%
38 | CS(=O)(=O)N1CCN(c2ccccc2NC(=O)Nc2cccc(Cl)c2)CC1 | inconclusive: -46.4%
39 | Cc1cc(OC(C)C(=O)N2CCN(c3ccc(F)cc3)CC2)c2c(C)cc(=O)oc2c1 (centres undefined) | inactive: -16.1%
40 | CC(C)Cn1cc(C(=O)N2CCN(c3cccc(Cl)c3)CC2)c2c3ccccc3n(C)c2c1=O | inconclusive: -45.8%
41 | O=[N+]([O-])c1ccc(-c2nc(Cl)c3c(n2)CCCC3)o1 | active: -69%
42 | CC(C)CC(=O)N[C@H](C(=O)N[C@H](C(=O)N[C@@H](CC(C)C)[C@@H](O)CC(=O)N[C@@H](C)C(=O)N[C@@H](CC(C)C)[C@@H](O)CC(=O)O)C(C)C)C(C)C (Isovaleryl-VV[Sta]A[Sta]-OH) | inconclusive: -43.2%

Row | Structure (SMILES) | activity change, negative = inhibition
43 | O=C(CSc1nnc(CNC(=O)c2c(F)cccc2Cl)o1)Nc1ccccc1 | inactive: -20.9%
44 | CCC(C)n1c(=S)[nH]c2c(sc3ccc([N+](=O)[O-])cc32)c1=O (centres undefined) | inconclusive: -48.8%
45 | CN(C)Cc1c(O)ccc2oc(Cc3ccccc3)cc12 | inactive: 3.24%
46 | CC1CCCN(C2=C(NS(=O)(=O)c3ccc(Br)cc3)C(=O)c3ccccc3C2=O)C1 (centres undefined) | inconclusive: -48.9%
47 | CCn1c(COc2ccc(=O)n(-c3ccccc3)n2)nnc1SCc1ccc(C)cc1 | inactive: -14.1%
48 | Nc1n[nH]c(-c2ccccc2)n1 | inactive: 12.6%
49 | NC(=O)C1CCN(C(=O)c2ccc(F)c(S(=O)(=O)N3CCOCC3)c2)CC1 | inactive: -6.8%
50 | C=C(C)c1cccc(C(C)(C)NC(=O)Nc2cc(C)ccn2)c1 | inconclusive: -59.8%
51 | Cc1ccc(N=C(N(C)C)P(=O)(N(C)C)N(C)C)c(C)c1 | inconclusive: -48.9%
52 | O=C(COC(=O)COc1cccc(C(F)(F)F)c1)NC(=O)NC1CCCCC1 | inactive: -21.9%
53 | COc1ccc(N2C(N)=NC(N)=NC2(C)C)cc1 | inconclusive: -55.9%
54 | Cc1ccc(C(=O)NC(=S)Nc2ccc(N3CCOCC3)cc2)c(C)c1 | inconclusive: -49%
55 | CC(=O)c1c(C)[nH]c(C(=O)CSc2nc3ccc(C)cc3[nH]2)c1C | inactive: 15.9%
56 | Cc1cc(C)c(NC(=S)N(Cc2cccnc2)Cc2ccco2)c(C)c1 | inconclusive: -55.8%
57 | CCc1cc2c(-c3ccccc3)cc(=O)oc2cc1OC(=O)c1cccs1 | inconclusive: -48%
58 | O=C(Nc1ccc(Br)cc1)c1ccco1 | inconclusive: -57.2%
59 | CC1CCCC(NCC(O)COC(c2ccc(F)cc2)c2ccc(F)cc2)C1C (centres undefined) | active: -97.2%
60 | COc1ccc(NS(=O)(=O)c2ccc(N3CCCCC3)c(N)c2)cc1 | inconclusive: -57.5%
61 | COc1ccc(NC(=O)Cn2nnc3ccccc32)c([N+](=O)[O-])c1 | inconclusive: -46.7%
62 | Clc1nnc(N2CCCCC2)c2ccccc12 | active: -91.4%
63 | O=C(NCc1ccco1)c1ccc2c(c1)N(Cc1ccc(Cl)cc1)CCS2 | inconclusive: -43.6%

A few values from the list:
Value for CC1CCCC(NCC(O)COC(c2ccc(F)cc2)c2ccc(F)cc2)C1C (centres undefined) under activity change, negative = inhibition: active: -97.2%
Value for CCCCNC(=O)CC1NCCNC1=O (centres undefined) under activity change, negative = inhibition: inconclusive: -44.5%
Value for O=C(COC(=O)COc1cccc(C(F)(F)F)c1)NC(=O)NC1CCCCC1 under activity change, negative = inhibition: inactive: -21.9%
Value for O=C(C1CCN(S(=O)(=O)c2cccc3cccnc23)CC1)N1CCN(c2ccc(Cl)cc2)CC1 under activity change, negative = inhibition: active: -79.2%

Carrying on:

Row | Structure (SMILES) | activity change, negative = inhibition
64 | C/C(=C\c1cccc(Br)c1)C(=O)c1c(C)cc(C)[nH]c1=O | inconclusive: -46.3%
65 | COc1cc(Oc2ccccc2)nc(N)n1 | inactive: 38%
66 | COc1ccc(/C=C2\CCCC3C2=NN(C(=O)COC(=O)CNC(=O)c2ccccc2)C3c2ccc(OC)cc2)cc1 (centres undefined) | inactive: 34.2%
67 | O=C(C1CC1)N1c2ccccc2Sc2ccccc21 | inactive: 4.2%
68 | CCCNC(=O)[C@H]1[C@H](CO)[C@H]2Cn3c(ccc(-c4ccc(F)cc4)c3=O)[C@@H]1N2C(=O)NC(C)C | inactive: -11.5%
69 | CCCCNC(=O)CSc1cc(=O)n(C)c2ccccc12 | inactive: -36.9%
70 | NP(=O)(OCC(F)(F)F)Oc1ccc(Cl)cc1 (centres undefined) | inconclusive: -47.7%
71 | CCn1ccc(C(=O)Nc2ccc(S(=O)(=O)Nc3ccccc3OC)cc2)n1 | inconclusive: -50.1%
72 | CCCn1c(N)c(N2CCCCC2)c(=O)n(CC(=O)Nc2ccc(C(C)=O)cc2)c1=O | inconclusive: -55.4%
73 | CC(CN1CCCCC1)OC(=O)c1ccc(Cl)cc1 (centres undefined) | inactive: 4.44%
74 | Brc1cccc(-c2nnc3sc(CNCc4ccco4)cn23)c1 | inconclusive: -40.2%
75 | COc1ccc(CCn2c(O)c(C=NCCCn3ccnc3)c(=O)[nH]c2=O)cc1OC | active: -107%
76 | Cc1cc(C)cc(NC(=O)Cn2c3ncccc3c(=O)n2-c2ccc(C)c(C)c2)c1 | inactive: 27.6%
77 | CCC(C)NC(=O)CN(c1cc(C)cc(C)c1)S(=O)(=O)c1c(C)[nH]c(=O)[nH]c1=O (centres undefined) | inactive: -20.7%
78 | COc1cc2c3nnc(-c4ccc(F)cc4)c-3cn(Cc3cccc(C)c3)c2cc1OC | inconclusive: -47%
79 | O=C(CSc1nc2[nH]c(=O)cc(O)c2s1)Nc1nncs1 | inactive: -2.05%
80 | CCCCCCCn1c(NC(=O)CC)nc2ccccc21 | active: -83.9%
81 | Cn1c(CC(=O)c2ccc(Br)cc2)[n+](C)c2ccccc21 | inconclusive: -53%
82 | CCO/C=C1\C(=O)N(CC)c2ccccc21 | inconclusive: -44.6%
83 | O=C1CC(c2nc(-c3ccccc3)no2)CN1c1ccc2c(c1)OCCO2 (centres undefined) | inactive: -2.34%
84 | Cc1onc(-c2ccccc2)c1C(=O)NN=Cc1cc(Cl)cc(Cl)c1O | inconclusive: -55.7%
